Out of some 390,000 compounds screened, about 4,000 (1%) were called active. The inconclusive results got no clear call from the source; some entries with a clear call stand among them for comparison. Calls follow the shape of the dose curve; as a rule, active = well fitted inhibition curve with a large enough effect; inconclusive = small, poorly fitted or top-dose-only effect, or another doubt; inactive = no such curve, though single readings can be large or run the other way. A potency beside an inconclusive call is a rough fit, not a confirmed value.
These compounds were tested against DNA polymerase iota (Homo sapiens) (UniProt Q9UNA4) (assay: qHTS for Inhibitors of Polymerase Iota). Details: Pol iota fluorescent replication assay, 10 min; series mostly up to 115 µM.
How it was run: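 Fluorescent replication assay read twice, at 0 min and 10 min after adding 50 nM (final) substrate. Enzyme (10 nM) and compounds were first incubated 15 min at room temperature; enzyme-free buffer wells were negative controls.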
Potency is read from the fitted curve at half-maximal effect.

Protein sequences, listed by entry. Tags and fused reporters are not part of them. Lines headed by an entry give the natural chain unless they say otherwise; changes in a name come on top.
UniProt Q9UNA4: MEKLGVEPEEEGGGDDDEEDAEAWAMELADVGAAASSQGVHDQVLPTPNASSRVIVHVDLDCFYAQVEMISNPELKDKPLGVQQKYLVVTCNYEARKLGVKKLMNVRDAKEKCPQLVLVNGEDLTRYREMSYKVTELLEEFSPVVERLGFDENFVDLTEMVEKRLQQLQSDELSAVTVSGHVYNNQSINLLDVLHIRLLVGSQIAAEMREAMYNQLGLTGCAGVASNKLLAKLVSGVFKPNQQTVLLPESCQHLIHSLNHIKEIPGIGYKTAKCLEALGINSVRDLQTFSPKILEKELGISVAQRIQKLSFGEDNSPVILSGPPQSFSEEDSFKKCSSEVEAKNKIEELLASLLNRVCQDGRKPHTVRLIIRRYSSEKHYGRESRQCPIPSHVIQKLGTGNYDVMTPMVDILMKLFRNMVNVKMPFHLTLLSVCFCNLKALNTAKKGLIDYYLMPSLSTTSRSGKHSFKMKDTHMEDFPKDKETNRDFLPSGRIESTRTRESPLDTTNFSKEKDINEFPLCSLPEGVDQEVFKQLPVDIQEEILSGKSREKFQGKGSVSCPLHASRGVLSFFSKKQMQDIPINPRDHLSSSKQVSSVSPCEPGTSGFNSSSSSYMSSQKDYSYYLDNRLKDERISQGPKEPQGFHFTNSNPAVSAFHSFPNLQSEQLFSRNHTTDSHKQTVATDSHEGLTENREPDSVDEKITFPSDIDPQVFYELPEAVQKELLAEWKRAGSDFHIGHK

| Compound | Potency |
| --- | --- |
| COc1ccc(-c2ccc(Nc3ccc(C(=O)N4CCOCC4)cc3)nn2)cc1OC | inconclusive: 10 µM [inhibitor, full curve, poor fit] |
| CCOC(=O)N1CCN(C(=O)C2CCN(c3ncnc4c3sc3cccc(F)c34)CC2)CC1 | inconclusive: 0.316 µM [inhibitor, full curve, poor fit] |
| CCCNC(=O)c1ccc(N2CCC3(CC2)CC(c2ccc(Cl)cc2)=NO3)c([N+](=O)[O-])c1 | inconclusive: 20 µM [inhibitor, partial curve, poor fit] |
| COC(=O)C1=C(C)N(c2ccccc2)/C(=C/c2ccco2)C1=O | inconclusive: 14.1 µM [inhibitor, partial curve, poor fit] |
| CCOC(=O)N1CCc2c(sc3c2c(=O)n(Cc2ccccc2)c(=O)n3Cc2cccc(C)c2)C1 | inconclusive: 39.8 µM [inhibitor, single point] |
| COc1cccc(Cn2c(=O)n(-c3cccc(Cl)c3)c(=O)c3c4c(sc32)CN(C(C)=O)CC4)c1 | inconclusive: 89.1 µM [inhibitor, single point] |
| CCOc1cc(OCC)cc(C(=O)Nc2cccc(-c3nc4ccccc4[nH]3)c2)c1 | inconclusive: 100 µM [inhibitor, single point] |
| COc1ccc(NC(=O)c2cc(C)nc3c2c(C)nn3-c2ccc(C)cc2)cc1OC | inactive |
| N#C/C(=C/c1ccncc1)c1nc2ccccc2c(=O)[nH]1 | inconclusive: 35.5 µM [inhibitor, single point] |
| CC1(C)CC2CC(C)(CN2C(=O)NC(=O)c2ccccc2)C1 (configuration not stated) | inconclusive: 89.1 µM [inhibitor, single point] |
| O=C1NC(=Nc2ccccc2)S/C1=C\c1cccs1 | inconclusive: 44.7 µM [inhibitor, partial curve] |
| CC(=Nc1ccccc1)C1=C(O)CSC1=O | inconclusive: 100 µM [inhibitor, partial curve, poor fit] |
| O=C(C[C@H]1C[C@H](C(=O)N2CCCCC2)[C@@]2(CCc3ccccc3)c3[nH]c4ccc(Cl)cc4c3CCN2C1=O)NCc1cccc(C(F)(F)F)c1 | inactive |
| COc1ccc2c(c1)CCc1sc(NC(=O)c3cccc(Br)c3)nc1-2 | inactive |
| C#Cc1ccc([C@@H]2C=C(C(=O)NCc3ccccc3)O[C@H](OCc3ccc(CO)cc3)C2)cc1 | inactive |
| c1ccc(Nc2cccc(Nc3ccccc3)n2)cc1 | inconclusive: 39.8 µM [inhibitor, single point] |
| CC(C)CN1C=C2C(=O)C(C)(OC(=O)C3CCCC3)C(=O)C=C2C=C1c1ccsc1 (configuration not stated) | inconclusive: 22.4 µM [inhibitor, partial curve, poor fit] |
| CCOc1ccc(S(=O)(=O)N2CCN(c3cccc(C(F)(F)F)c3)CC2)cc1OCC | inconclusive: 20 µM [inhibitor, partial curve, poor fit] |
| Cc1ccc(NC(=O)c2oc3ccccc3c2NC(=O)Cc2ccccc2)cc1 | inactive |
| CCOc1ccc(CNC(=O)C2CCN(c3nnc(-n4c(C)ccc4C)s3)CC2)cc1 | inactive |
| C=CCn1cccc(/C=C/C(=O)c2ccc(C(C)(C)C)cc2)c1=S | inconclusive: 15.8 µM [inhibitor, full curve, poor fit] |

Another view of 18 compounds above.
Compound | Potency
COc1ccc(-c2ccc(Nc3ccc(C(=O)N4CCOCC4)cc3)nn2)cc1OC | inconclusive: 10 µM [inhibitor, full curve, poor fit]
CCOC(=O)N1CCN(C(=O)C2CCN(c3ncnc4c3sc3cccc(F)c34)CC2)CC1 | inconclusive: 0.316 µM [inhibitor, full curve, poor fit]
CCCNC(=O)c1ccc(N2CCC3(CC2)CC(c2ccc(Cl)cc2)=NO3)c([N+](=O)[O-])c1 | inconclusive: 20 µM [inhibitor, partial curve, poor fit]
COC(=O)C1=C(C)N(c2ccccc2)/C(=C/c2ccco2)C1=O | inconclusive: 14.1 µM [inhibitor, partial curve, poor fit]
CCOC(=O)N1CCc2c(sc3c2c(=O)n(Cc2ccccc2)c(=O)n3Cc2cccc(C)c2)C1 | inconclusive: 39.8 µM [inhibitor, single point]
COc1cccc(Cn2c(=O)n(-c3cccc(Cl)c3)c(=O)c3c4c(sc32)CN(C(C)=O)CC4)c1 | inconclusive: 89.1 µM [inhibitor, single point]
CCOc1cc(OCC)cc(C(=O)Nc2cccc(-c3nc4ccccc4[nH]3)c2)c1 | inconclusive: 100 µM [inhibitor, single point]
N#C/C(=C/c1ccncc1)c1nc2ccccc2c(=O)[nH]1 | inconclusive: 35.5 µM [inhibitor, single point]
CC1(C)CC2CC(C)(CN2C(=O)NC(=O)c2ccccc2)C1 (configuration not stated) | inconclusive: 89.1 µM [inhibitor, single point]
CC(=Nc1ccccc1)C1=C(O)CSC1=O | inconclusive: 100 µM [inhibitor, partial curve, poor fit]
O=C(C[C@H]1C[C@H](C(=O)N2CCCCC2)[C@@]2(CCc3ccccc3)c3[nH]c4ccc(Cl)cc4c3CCN2C1=O)NCc1cccc(C(F)(F)F)c1 | inactive
COc1ccc2c(c1)CCc1sc(NC(=O)c3cccc(Br)c3)nc1-2 | inactive
C#Cc1ccc([C@@H]2C=C(C(=O)NCc3ccccc3)O[C@H](OCc3ccc(CO)cc3)C2)cc1 | inactive
c1ccc(Nc2cccc(Nc3ccccc3)n2)cc1 | inconclusive: 39.8 µM [inhibitor, single point]
CCOc1ccc(S(=O)(=O)N2CCN(c3cccc(C(F)(F)F)c3)CC2)cc1OCC | inconclusive: 20 µM [inhibitor, partial curve, poor fit]
Cc1ccc(NC(=O)c2oc3ccccc3c2NC(=O)Cc2ccccc2)cc1 | inactive
CCOc1ccc(CNC(=O)C2CCN(c3nnc(-n4c(C)ccc4C)s3)CC2)cc1 | inactive
C=CCn1cccc(/C=C/C(=O)c2ccc(C(C)(C)C)cc2)c1=S | inconclusive: 15.8 µM [inhibitor, full curve, poor fit]

Additional results follow:

| Compound | Potency |
| --- | --- |
| Cc1oc2cc3oc(=O)c(CC(=O)N[C@H](C(=O)N[C@@H](C(=O)O)c4ccccc4)C(C)C)c(C)c3cc2c1C | active: 79.4 µM |
| O=C(CN1CCN(Cc2ccccc2)CC1)Nc1ccc(Cl)cc1 | inconclusive: 8.91 µM [inhibitor, full curve, poor fit] |
| Cc1csc(=O)n1CC(=O)OCC(=O)NC(C)c1ccc(F)cc1 (configuration not stated) | inconclusive: 79.4 µM [inhibitor, single point] |
| O=C(O)C1=NN(c2ccccc2)C(=O)C1 | inconclusive: 31.6 µM [inhibitor, single point] |
| COc1ccc(-c2cc(=O)c3c(C)cc(O)cc3o2)cc1 | active: 20 µM |
| CCC(=O)c1ccc(OCC(O)CN2CCCCC2)cc1 (configuration not stated) | inconclusive: 56.2 µM [inhibitor, full curve, poor fit] |
| COC(=O)c1ccc(COC(=O)CSCC(=O)Nc2ccc(C)cc2C)cc1 | inconclusive: 79.4 µM [inhibitor, partial curve, poor fit] |
| CC(/C=C/c1ccccc1)=N\NC(=O)CSc1ccccn1 | inconclusive: 100 µM [inhibitor, single point] |
| CCN1CCN(c2nc3ccccc3n3cnnc23)CC1 | inconclusive: 20 µM [inhibitor, partial curve, poor fit] |
| O=C(NNC(=O)c1ccc(NC(=O)c2ccccc2)cc1)c1ccc(F)cc1 | inconclusive: 89.1 µM [inhibitor, single point] |
| Cc1ccc2nsnc2c1NC(=O)CCl | inconclusive: 79.4 µM [inhibitor, partial curve, poor fit] |
| Cc1ccc(-c2cc(C(=O)NCCCN3CCCC3)c3ccccc3n2)cc1C | inconclusive: 89.1 µM [inhibitor, partial curve, poor fit] |
| CSc1ccc(/C=C/C(=O)NC(=O)c2ccccc2O)cc1 | inconclusive: 79.4 µM [inhibitor, partial curve] |
| CC1CCC(NC(=O)c2ccc(N3CCCC3=O)cc2)CC1 (configuration not stated) | inconclusive: 100 µM [inhibitor, partial curve, poor fit] |
| COc1ccc2c(c1)c(=O)oc1cc(OCC(=O)N3CCCC(C)C3)ccc12 (configuration not stated) | inconclusive: 25.1 µM [inhibitor, partial curve, poor fit] |
| CCN(CC)C(=O)C(=O)N/N=C/c1cccs1 | inconclusive: 4.47 µM [inhibitor, full curve, poor fit] |
| CC(=O)Nc1ccc(S(=O)(=O)N2CCC(N(C)CCC(C)C)CC2)cc1 | inconclusive: 39.8 µM [inhibitor, single point] |
| C#CCOCCOCCOCCNc1nc(N2CCN(C(=O)[C@H]([C@@H](C)O)n3cc(CCCCN)nn3)CC2)nc(N2CCN(C(=O)[C@H](CCCCN)n3cc(CCC(=O)O)nn3)CC2)n1 | inconclusive: 11.2 µM [inhibitor, partial curve, poor fit] |
| CCn1c(C)c(C)c2cc(C(=O)NCCCN3CCCCCC3)ccc21 | active: 89.1 µM |
| CC(=O)Nc1ccc(/C=C/c2ccnc3ccccc23)cc1[N+](=O)[O-] | inactive |
| O=C(COC(=O)c1cncc(Br)c1)NCc1ccco1 | inconclusive: 8.91 µM [inhibitor, full curve, poor fit] |

| Compound | Potency |
| --- | --- |
| COc1ccc(-c2nc(SCC(=O)Nc3ccc4c(c3)OCCO4)c(-c3ccc(F)cc3)[nH]2)cc1 | inconclusive: 79.4 µM [inhibitor, partial curve, poor fit] |
| CC(NCC(=O)Nc1cc(Cl)cc(Cl)c1)c1ccccc1 (configuration not stated) | inconclusive: 0.708 µM [inhibitor, full curve, poor fit] |
| COc1ccc(C(=O)COC(=O)c2cc([N+](=O)[O-])ccc2N2CCOCC2)c(OC)c1 | active: 79.4 µM |
| CC(C)c1ccc(NC(=O)Cn2c(=O)n(CC3CCC(C(=O)NCCc4ccccc4)CC3)c(=O)c3ccccc32)cc1 (configuration not stated) | inactive |
| COC(=O)C1=C(C)N(CCCC(=O)O)C(=O)NC1c1ccc(C#N)cc1 (configuration not stated) | active: 14.1 µM |
| CC(C)CN(C(=O)CSc1nc2ccccc2[nH]1)C1CCS(=O)(=O)C1 (configuration not stated) | inactive |
| Cc1c(C(=O)N2CCOCC2)oc2c1-c1nn(CC(=O)NCc3cccc(F)c3)cc1CC2 | inconclusive: 39.8 µM [inhibitor, partial curve, poor fit] |
| Cc1ccc(/C=C(\C#N)c2nc(-c3ccc(-c4ccccc4)cc3)cs2)cc1 | inconclusive: 89.1 µM [inhibitor, single point] |
| Cc1ccc(S(=O)(=O)C2(C(=O)Nc3ccc(Cl)c(C(F)(F)F)c3)CC2)cc1 | inactive |
| CCOc1ccc(CCNC(=O)CCS(=O)(=O)c2ccc(Br)cc2)cc1OCC | inactive |
| Cc1ccc(CNc2ccc(-c3nc(-c4ccncc4)no3)cc2[N+](=O)[O-])cc1 | inactive |
| CC(C)(C)OC(=O)[C@H](Cc1ccccc1)NC(=O)c1nc[nH]c1C(=O)NCCCCCN | inconclusive: 39.8 µM [inhibitor, partial curve, poor fit] |
| Cc1ccc(Cl)cc1N1CCN(C(=O)C2CCC(CNS(=O)(=O)c3cccs3)CC2)CC1 (configuration not stated) | inactive |
| CC(C)(C)C1CCc2c(sc(NC(=O)Cn3nnc(-c4ccccc4Cl)n3)c2C#N)C1 (configuration not stated) | inconclusive: 70.8 µM [inhibitor, partial curve, poor fit] |
| CCOC(=O)c1c(-c2ccc(C)o2)csc1NC(=O)CN1CCCCC1 | inconclusive: 31.6 µM [inhibitor, partial curve, poor fit] |
| COc1cc(/C=C/c2cccc[n+]2C)ccc1OCC(=O)Nc1ccccc1 | inconclusive: 50.1 µM [inhibitor, partial curve] |
| COc1ccccc1CNC(=O)CCc1c(C)c2cc3c(C)c(C)oc3cc2oc1=O | inconclusive: 100 µM [inhibitor, partial curve, poor fit] |
| CCOC(=O)c1ccc(NC(=O)Cn2cc(C(=O)C3CC3)c3ccccc32)cc1 | inactive |
| C=CCc1cccc2cc(-c3nc4ccc(C)cc4[nH]3)c(=O)oc12 | inconclusive: 100 µM [inhibitor, partial curve, poor fit] |
| Nc1nc2c(ncn2COC(CO)CO)c(=O)[nH]1 | inconclusive: 39.8 µM [inhibitor, single point] |

From PubChem BioAssay AID588590 (National Center for Advancing Translational Sciences (NCATS), 2011)
